Assay results from article doi:10.1101/188995 (bioRxiv, 2018).
These are yes or no findings as the source states them, for the method shown. Some results given as binding are weak or reduced against the parent protein; the word gives no strength. For some of these results: Sequences can lack the tags named with a protein.

Experiments:
[1] = biological target: native TasA fibres extracted from B. subtilis (B. subtilis (endogenous)) (UniProt P54507); assay: negative-stain transmission electron microscopy
[2] = biological target: monomeric serine-tagged TasA (B. subtilis NCIB3610) (UniProt P54507); assay: negative-stain transmission electron microscopy
[3] = biological target: monomeric serine-tagged TasA (B. subtilis NCIB3610) (UniProt P54507); assay: SEC
[4] = biological target: TasA(28-261) with a single lysine added to the N-terminus (B. subtilis NCIB3610) (UniProt P54507); assay: SEC
[5] = biological target: TasA(28-261) with a single phenylalanine added to the N-terminus (B. subtilis NCIB3610) (UniProt P54507); assay: SEC
[6] = biological target: TasA(28-261) with a single glutamic acid added to the N-terminus (B. subtilis NCIB3610) (UniProt P54507); assay: SEC
[7] = biological target: TasA(28-261) with a single alanine added to the N-terminus (B. subtilis NCIB3610) (UniProt P54507); assay: SEC

B1: recombinant B. subtilis TasA(28-261), fibre-forming (natural protein, B. subtilis NCIB3610, UniProt P54507 28-261, looked up)
chain: AFNDIKSKDATFASGTLDLSAKENSASVNLSNLKPGDKLTKDFQFENNGSLAIKEVLMALNYGDFKANGGSNTSPEDFLSQFEVTLLTVGKEGGNGYPKNIILDDANLKDLYLMSAKNDAAAAEKIKKQIDPKFLNASGKVNVATIDGKTAPEYDGVPKTPTDFDQVQMEIQFKDDKTKDEKGLMVQNKYQGNSIKLQFSFEATQWNGLTIKKDHTDKDGYVKENEKAHSEDKN
binding [1]: binds

B2: monomeric serine-tagged TasA (protein, UniProt P54507 28-261)
chain: SAFNDIKSKDATFASGTLDLSAKENSASVNLSNLKPGDKLTKDFQFENNGSLAIKEVLMALNYGDFKANGGSNTSPEDFLSQFEVTLLTVGKEGGNGYPKNIILDDANLKDLYLMSAKNDAAAAEKIKKQIDPKFLNASGKVNVATIDGKTAPEYDGVPKTPTDFDQVQMEIQFKDDKTKDEKGLMVQNKYQGNSIKLQFSFEATQWNGLTIKKDHTDKDGYVKENEKAHSEDKN
binding [2]: no binding
binding [3]: no binding

B3: TasA(28-261) with a single lysine added to the N-terminus (protein, UniProt P54507 28-261)
chain: KAFNDIKSKDATFASGTLDLSAKENSASVNLSNLKPGDKLTKDFQFENNGSLAIKEVLMALNYGDFKANGGSNTSPEDFLSQFEVTLLTVGKEGGNGYPKNIILDDANLKDLYLMSAKNDAAAAEKIKKQIDPKFLNASGKVNVATIDGKTAPEYDGVPKTPTDFDQVQMEIQFKDDKTKDEKGLMVQNKYQGNSIKLQFSFEATQWNGLTIKKDHTDKDGYVKENEKAHSEDKN
binding [4]: no binding

B4: TasA(28-261) with a single phenylalanine added to the N-terminus (protein, UniProt P54507 28-261)
chain: FAFNDIKSKDATFASGTLDLSAKENSASVNLSNLKPGDKLTKDFQFENNGSLAIKEVLMALNYGDFKANGGSNTSPEDFLSQFEVTLLTVGKEGGNGYPKNIILDDANLKDLYLMSAKNDAAAAEKIKKQIDPKFLNASGKVNVATIDGKTAPEYDGVPKTPTDFDQVQMEIQFKDDKTKDEKGLMVQNKYQGNSIKLQFSFEATQWNGLTIKKDHTDKDGYVKENEKAHSEDKN
binding [5]: no binding

B5: TasA(28-261) with a single glutamic acid added to the N-terminus (protein, UniProt P54507 28-261)
chain: EAFNDIKSKDATFASGTLDLSAKENSASVNLSNLKPGDKLTKDFQFENNGSLAIKEVLMALNYGDFKANGGSNTSPEDFLSQFEVTLLTVGKEGGNGYPKNIILDDANLKDLYLMSAKNDAAAAEKIKKQIDPKFLNASGKVNVATIDGKTAPEYDGVPKTPTDFDQVQMEIQFKDDKTKDEKGLMVQNKYQGNSIKLQFSFEATQWNGLTIKKDHTDKDGYVKENEKAHSEDKN
binding [6]: no binding

B6: TasA(28-261) with a single alanine added to the N-terminus (protein, UniProt P54507 28-261)
chain: AAFNDIKSKDATFASGTLDLSAKENSASVNLSNLKPGDKLTKDFQFENNGSLAIKEVLMALNYGDFKANGGSNTSPEDFLSQFEVTLLTVGKEGGNGYPKNIILDDANLKDLYLMSAKNDAAAAEKIKKQIDPKFLNASGKVNVATIDGKTAPEYDGVPKTPTDFDQVQMEIQFKDDKTKDEKGLMVQNKYQGNSIKLQFSFEATQWNGLTIKKDHTDKDGYVKENEKAHSEDKN
binding [7]: no binding
